The source of these data is US11891362B1, “N2,N4-disubstituted pyrimidine-2,4-diamine compounds as antibacterial agents” (KING FAISAL UNIVERSITY, priority 2023, dated 2024).

Assay in all cases: In vitro antibacterial activity, dilution susceptibility test (CLSI M07-A10)
Common to all, as to assay type: cell-based

Test [1] deals with Bacillus subtilis MTCC 441. Conditions: MTCC441. An excerpt:
(§1) Enterococcus faecium resistant to VRE, and Gram-negative organisms including Klebsiella pneumonia, Escherichia coli, Pseudomonas aeruginosa.

Test [2] has as its system Enterococcus faecium ATCC 35667. The settings on record: ATCC35667.
Source text: as §1

Test [3] has as its system Enterococcus faecium ATCC 51559 (VRE resistant).
Source text: as §1

For test [4], the system named is Escherichia coli MTCC 443. The settings on record: MTCC443.
Source text: as §1

The subject of test [5] is Staphylococcus aureus ATCC 29213. The settings on record: ATCC29213.
Source text: as §1

In test [6] the test system is Staphylococcus aureus ATCC BAA-1556 (MERSA resistant). Conditions: ATCCBAA1556.
Source text: as §1

The subject of test [7] is Staphylococcus epidermidis.
Source text: as §1

Converted amounts (≈) assume the structure as drawn. A value given as a limit tells only on which side of the number the result lay.

In the case of `CN[C@H](CC(C)C)C(=O)N[C@H]1C(=O)N[C@@H](CC(N)=O)C(=O)N[C@H]2C(=O)N[C@H]3C(=O)N[C@H](C(=O)N[C@H](C(=O)O)c4cc(O)cc(O)c4-c4cc3ccc4O)[C@H](O)c3ccc(c(Cl)c3)Oc3cc2cc(c3O[C@@H]2O[C@H](CO)[C@@H](O)[C@H](O)[C@H]2O[C@H]2C[C@](C)(N)[C@H](O)[C@H](C)O2)Oc2ccc(cc2Cl)[C@H]1O` [Vancomycin, reference compound], the minimum inhibitory concentration (MIC) in test [1] is 0.5 µg/mL (≈ 0.345 µM); in test [2] it was 0.5 µg/mL (≈ 0.345 µM); in test [3], greater than 128 µg/mL; in test [4], greater than 128 µg/mL; in test [5], 1 µg/mL (≈ 0.69 µM); in test [6] it was 1 µg/mL (≈ 0.69 µM). Also, the minimal inhibitory concentration (MIC) in test [7] amounted to 1 µg/mL (≈ 0.69 µM).
